Test results as given in PubChem BioAssay AID306 (DTP/NCI, 2004).
The list does not hold the whole screen: it is rich in T/C values a quarter to a half above the control, in often repeated tests (any T/C) and in doses without a T/C. Further doses and runs are listed elsewhere. T/C is the treated group as % of the vehicle group. Some entries give survivors of the animals treated and no T/C: the source holds a T/C of zero for them, seemingly a mark for toxic or unscored doses. Some doses without a T/C left all or most animals alive at the check, yet need not have been tolerated: the source hardly ever lists a survival T/C far under the control, and the zero likely stands for such cases as well. Survivors were counted at the toxicity check, usually on the fifth day, unless a day is given; later deaths do not show. Schedule codes are those of the source, taken here to give the interval after Q, in days (D) or hours (H), and the number of doses after X. Some schedule codes hold Z or #, which are not explained here. Some doses were run more than once; their values stand side by side, smallest first. For survival time, this PubChem deposit counts one and a half times the control or more as active, and values a quarter to a half above the control carry no call in these data; other NCI protocols may use other cut-offs. Some T/C values are followed by the survivors on the day toxicity was checked, most often the fifth; where none is given, no animal had died by that day.

Tested on: BDF1 mice, L1210 Methyl-GAG-resistant leukemia, survival T/C
Assay: NCI In Vivo Anticancer Drug Screen. Data for tumor model L1210 Leukemia resistant to Methyl-GAG; NSC 32946 (subcutaneous) in B6D2F1 (BDF1) mice
Settings: T/C endpoint: mean survival time, higher T/C = longer survival
Protocol: The antitumor activity of compounds was measured in mice bearing transplantable tumors. Survival or tumor size were measured and the results are expressed as the measurement made in the treated group (T) divided by the measurement made in the vehicle treated control group (C). The tumor model used in this assay is L1210 Leukemia resistant to Methyl-GAG; NSC 32946 (subcutaneous) in B6D2F1 (BDF1) mice

[1] = dose: 150.0 mg/kg/injection, schedule: Q01DX Z (sc), vehicle: steroid suspending solution
[2] = dose: 300.0 mg/kg/injection, schedule: Q01DX Z (sc), vehicle: steroid suspending solution
[3] = dose: 50.0 mg/kg/injection, schedule: Q01DX Z (ip), vehicle: carboxymethylcellulose (CMC)
[4] = dose: 50.0 mg/kg/injection, schedule: Q01DX Z (ip), vehicle: saline
[5] = dose: 100.0 mg/kg/injection, schedule: Q01DX Z (ip), vehicle: carboxymethylcellulose (CMC)
[6] = dose: 62.5 mg/kg/injection, schedule: Q01DX Z (sc), vehicle: steroid suspending solution
[7] = dose: 250.0 mg/kg/injection, schedule: Q01DX Z (sc), vehicle: steroid suspending solution
[8] = dose: 500.0 mg/kg/injection, schedule: Q01DX Z (sc), vehicle: steroid suspending solution
[9] = dose: 5.0 mg/kg/injection, schedule: Q01DX Z (ip), vehicle: carboxymethylcellulose (CMC)
[10] = dose: 400.0 mg/kg/injection, schedule: Q01DX Z (ip), vehicle: carboxymethylcellulose (CMC)
[11] = dose: 800.0 mg/kg/injection, schedule: Q01DX Z (ip), vehicle: carboxymethylcellulose (CMC)
[12] = dose: 200.0 mg/kg/injection, schedule: Q01DX Z (ip), vehicle: carboxymethylcellulose (CMC)

`C[C@]12C=CC(=O)C=C1CC[C@@H]1[C@@H]2C(=O)C[C@@]2(C)[C@H]1CC[C@]2(O)C(=O)CO` was tested, and the T/C (dose: 50.0 mg/kg/injection, schedule: Q01DX Z (sc), vehicle: steroid suspending solution) was 145 % of control, the T/C (dose: 100.0 mg/kg/injection, schedule: Q01DX Z (sc), vehicle: steroid suspending solution) was 146 % of control and the T/C [1] was 131 % of control. For the same molecule, the T/C (dose: 200.0 mg/kg/injection, schedule: Q01DX Z (sc), vehicle: steroid suspending solution) was 134 % of control [5 of 6 alive] and the T/C [2] was 136 % of control.

`O=C(O)CCCc1ccc(N(CCCl)CCCl)cc1` was tested, and the survivor count [3] was 4 of 6.

`Cn1cc(NC(=O)c2cc(NC(=O)CN=C(N)N)cn2C)cc1C(=O)NCCC(=N)N` was tested, and the survivor count [4] was 1 of 6.

`CN(C)c1ccc(Nc2c3ccccc3nc3ccccc23)cc1` was tested, and the T/C [3] was 128 % of control and the T/C [5] was 131 % of control.

For `O=NN(CCCl)C(=O)NCCCl`, the T/C (dose: 0.5 mg/kg/injection, schedule: Q01DX Z (ip), vehicle: saline) was 125 % of control and the survivor count (dose: 64.0 mg/kg/injection, schedule: Q01DX Z (ip), vehicle: saline) was 5 of 6.

`NC(=O)c1ccc(N)nc1` was tested, and the T/C (dose: 1.25 mg/kg/injection, schedule: Q01DX Z (ip), vehicle: water) was 140 % of control [5 of 6 alive], the T/C (dose: 2.5 mg/kg/injection, schedule: Q01DX Z (ip), vehicle: saline) was 130 % of control and the survivor count (dose: 2.5 mg/kg/injection, schedule: Q01DX Z (ip), vehicle: water) was 6 of 6. The survivor count (dose: 5.0 mg/kg/injection, schedule: Q01DX Z (ip), vehicle: water) was 6 of 6.

`CC[C@H](c1ccc(O)cc1)[C@@H](CC)c1ccc(O)cc1` was tested, and the survivor count [6] was 3 of 6, the survivor count (dose: 125.0 mg/kg/injection, schedule: Q01DX Z (sc), vehicle: steroid suspending solution) was 0 of 6 and the survivor count [7] was 0 of 6. For the same molecule, the survivor count [8] was 0 of 6.

For `C=CC(CN1CC1)OC(C)=O` (configuration not stated), the T/C (dose: 3.8 mg/kg/injection, schedule: Q01DX Z (ip), vehicle: carboxymethylcellulose (CMC)) was 129 % of control, the survivor count (dose: 15.0 mg/kg/injection, schedule: Q01DX Z (ip), vehicle: carboxymethylcellulose (CMC)) was 5 of 6 and the survivor count (dose: 30.0 mg/kg/injection, schedule: Q01DX Z (ip), vehicle: carboxymethylcellulose (CMC)) was 3 of 6.

With `Nc1ncnc2c1ccn2C1OC(CO)C(O)C1O` (configuration not stated) the survivor count (dose: 2.5 mg/kg/injection, schedule: Q01DX Z (ip), vehicle: carboxymethylcellulose (CMC)) was 3 of 6 and the survivor count [9] was 3 of 6.

`CCC(=O)O[C@H]1CC[C@H]2[C@@H]3CCC4=CC(=O)CC[C@]4(C)[C@H]3CC[C@]12C` was tested, and the survivor count (dose: 37.5 mg/kg/injection, schedule: Q01DX Z (sc), vehicle: steroid suspending solution) was 6 of 6, the survivor count (dose: 75.0 mg/kg/injection, schedule: Q01DX Z (sc), vehicle: steroid suspending solution) was 6 of 6 and the survivor count [1] was 6 of 6. For the same molecule, the survivor count [2] was 6 of 6.

In the case of `O=c1[nH]c(=O)n(C2CC(O)C(CO)O2)cc1F` (configuration not stated), the T/C [3] is reported as 125 % of control, the T/C [5] is reported as 138 % of control and the survivor count [10] is reported as 6 of 6. For the same molecule, the survivor count [11] was 6 of 6.

`CC(=O)Nc1ccc2nc3ccc(NC(C)=O)cc3[n+](-c3ccccc3)c2c1` was tested, and the T/C [10] was 129 % of control and the survivor count [11] was 2 of 6.

For `C[C@]12CC[C@H](OC3OC(CO)C(O)C(O)C3O)C[C@H]1CC[C@@H]1[C@@H]2CC[C@]2(C)[C@@H](C3=CCOC3=O)CC[C@]12O` (some centres not stated), the survivor count (dose: 8.0 mg/kg/injection, schedule: Q01DX Z (ip), vehicle: saline) was 3 of 6.

For `CCn1cnc2c(=S)nc[nH]c21`, the T/C (dose: 62.5 mg/kg/injection, schedule: Q01DX Z (ip), vehicle: carboxymethylcellulose (CMC)) was 145 % of control, the T/C (dose: 125.0 mg/kg/injection, schedule: Q01DX Z (ip), vehicle: carboxymethylcellulose (CMC)) was 134 % of control and the survivor count (dose: 250.0 mg/kg/injection, schedule: Q01DX Z (ip), vehicle: carboxymethylcellulose (CMC)) was 6 of 6. For the same molecule, the survivor count (dose: 500.0 mg/kg/injection, schedule: Q01DX Z (ip), vehicle: carboxymethylcellulose (CMC)) was 1 of 6 and the survivor count (dose: 1000.0 mg/kg/injection, schedule: Q01DX Z (ip), vehicle: carboxymethylcellulose (CMC)) was 0 of 6.

In the case of `Cn1cnc([N+](=O)[O-])c1Sc1nc(N)nc2nc[nH]c12`, the survivor count (dose: 16.0 mg/kg/injection, schedule: Q01DX Z (ip), vehicle: carboxymethylcellulose (CMC)) is reported as 6 of 6, the survivor count (dose: 32.0 mg/kg/injection, schedule: Q01DX Z (ip), vehicle: carboxymethylcellulose (CMC)) is reported as 5 of 6 and the survivor count (dose: 64.0 mg/kg/injection, schedule: Q01DX Z (ip), vehicle: carboxymethylcellulose (CMC)) is reported as 6 of 6.

With `NC(Cc1ccc(N(CCCl)CCCl)cc1)C(=O)O` (configuration not stated) the T/C [9] was 126 % of control, the T/C (dose: 10.0 mg/kg/injection, schedule: Q01DX Z (ip), vehicle: carboxymethylcellulose (CMC)) was 127 % of control and the survivor count (dose: 40.0 mg/kg/injection, schedule: Q01DX Z (ip), vehicle: carboxymethylcellulose (CMC)) was 4 of 6.

For `CCCSc1ncnc2nc[nH]c12`, the survivor count [12] was 0 of 6.

With `O=c1[nH]cc(F)c(=O)[nH]1` the T/C (dose: 6.25 mg/kg/injection, schedule: Q01DX Z (ip), vehicle: saline) was 136 % of control, the T/C (dose: 12.5 mg/kg/injection, schedule: Q01DX Z (ip), vehicle: saline) was 97 [5 of 6 alive], 108, 116, 184 % of control and the T/C (dose: 25.0 mg/kg/injection, schedule: Q01DX Z (ip), vehicle: saline) was 125, 130, 153, 185 % of control. The T/C [4] was 95 [5 of 6 alive], 101, 121, 198 % of control, the survivor count (dose: 100.0 mg/kg/injection, schedule: Q01DX Z (ip), vehicle: saline) was 3 of 6 and 6 of 6 and the survivor count (dose: 200.0 mg/kg/injection, schedule: Q01DX Z (ip), vehicle: saline) was 6 of 6.

`N#CCSc1ncnc2nc[nH]c12` was tested, and the survivor count [5] was 3 of 6.

With `O[C@H](CN1CC1)[C@@H](O)CN1CC1` the T/C (dose: 0.25 mg/kg/injection, schedule: Q01DX Z (ip), vehicle: carboxymethylcellulose (CMC)) was 128 % of control, the survivor count (dose: 1.0 mg/kg/injection, schedule: Q01DX Z (ip), vehicle: carboxymethylcellulose (CMC)) was 6 of 6 and the survivor count (dose: 2.0 mg/kg/injection, schedule: Q01DX Z (ip), vehicle: carboxymethylcellulose (CMC)) was 5 of 6. The survivor count (dose: 4.0 mg/kg/injection, schedule: Q01DX Z (ip), vehicle: carboxymethylcellulose (CMC)) was 1 of 6, the T/C (dose: 250.0 micrograms/kg/injection, schedule: Q01DX Z (ip), vehicle: carboxymethylcellulose (CMC)) was 142 % of control and the T/C (dose: 500.0 micrograms/kg/injection, schedule: Q01DX Z (ip), vehicle: carboxymethylcellulose (CMC)) was 140 % of control.

`CN(C)c1nc(N(C)C)nc(N(C)C)n1` was tested, and the survivor count (dose: 2000.0 mg/kg/injection, schedule: Q01DX Z (ip), vehicle: methylcellulose (MC)) was 4 of 6.

For `CSCS(=O)C[C@H](CO)NC(=O)/C=C/c1c(C)[nH]c(=O)[nH]c1=O` (some centres not stated), the survivor count (dose: 2.0 mg/kg/injection, schedule: Q01DX Z (ip), vehicle: saline) was 0 of 6.

For `O=C(Nc1ccc(NC2=NCCN2)cc1)c1ccc(C(=O)Nc2ccc(NC3=NCCN3)cc2)cc1`, the T/C (dose: 4.0 mg/kg/injection, schedule: Q01DX Z (ip), vehicle: saline) was 143 % of control and the T/C (dose: 16.0 mg/kg/injection, schedule: Q01DX Z (ip), vehicle: saline) was 138 % of control.

`CN(Cc1cnc2nc(N)nc(N)c2n1)c1c(Cl)cc(C(=O)NC(CCC(=O)O)C(=O)O)cc1Cl` (configuration not stated) was tested, and the T/C (dose: 25.0 mg/kg/injection, schedule: Q01DX Z (ip), vehicle: carboxymethylcellulose (CMC)) was 143 % of control, the survivor count [5] was 5 of 6 and the survivor count [12] was 4 of 6. The survivor count [10] was 3 of 6.

With `CSc1ncnc2nc[nH]c12` the survivor count [10] was 1 of 6.

With `C[C@]12C=CC(=O)C=C1CC[C@@H]1[C@@H]2[C@@H](O)C[C@@]2(C)[C@H]1CC[C@]2(O)C(=O)CO` the T/C [6] was 143 % of control, the survivor count [7] was 0 of 6 and the survivor count [8] was 6 of 6.
